From PubChem BioAssay AID624297 (National Center for Advancing Translational Sciences (NCATS), 2012)
The campaign covered roughly 340,000 compounds. About 6,200 (1.8%) were called active. The inconclusive results got no clear call from the source; some entries with a clear call stand among them for comparison. Calls come from the whole dose curve; as a rule, active = well fitted activation curve with a large enough effect; inconclusive = small, poorly fitted or top-dose-only effect; inactive = no such curve, though single readings can be large or run the other way. Potencies beside an inconclusive call are fits to weak or partial responses and may not hold up.
Potency is the fitted concentration of half-maximal effect.

Test: A quantitative high throughput screen for small molecules that induce DNA re-replication in SW480 colon adenocarcinoma cells. For re-replication activation: % of control where 0% means no effect. Note: nearly all actives have a fitted effect of over 55% in size.
Conditions: Hoechst DNA content imaging, 48 h; re-replication activation: at 46.1 µM (top of the series) unless noted
Method in brief: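 Quantitative HTS format with DMSO vehicle controls; 48 hr drug incubation at 37 C, then 40 min Hoechst staining and scanning imager measurement at 405 nm excitation.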
With `CCOC(=O)c1sc(NC(=O)CSc2ccccn2)c(C#N)c1C` the “re-replication activation” value was inactive: 15.1%. With `COC(=O)c1ccc(-c2ccc([C@H]3[C@H]4C=CC[C@@H](C)[C@@H]4C(=O)N3Cc3ccccc3)c(F)c2)cc1` the Potency was inconclusive: 20.6 µM [activator, partial curve, poor fit]. With `CCOC(=O)c1cc2c(=O)n3ccccc3nc2n(CC2CCCO2)c1=NC(=O)/C=C/c1ccccc1` (configuration not stated) the Potency was inconclusive: 20.6 µM [activator, single point]. With `CCCCSc1nnc([C@H](C)NC(=O)OC(C)(C)C)o1` the “re-replication activation” value was inactive: -2.53%. In the case of `CCn1c(SCC(=O)N(C(C)C)C(C)C)nnc1-c1cc2ccccc2cc1O`, the “re-replication activation” value was inactive: -15%. For `N#C/C(=C\c1c(Cl)cccc1Cl)c1nc2ccccc2[nH]1`, the Potency was inconclusive: 29.1 µM [activator, single point]. With `COc1ccc(C(=O)n2nc(-c3ccc(C)cc3)nc2N)cc1OC` the Potency was inconclusive: 29.1 µM [activator, single point]. With `COc1ccc(N(CC(=O)Nc2ccccc2OC)S(=O)(=O)c2ccc(OC)c(OC)c2)cc1` the Potency was inconclusive: 4.61 µM [activator, full curve, poor fit]. For `CC(=O)Nc1ccc(S(=O)(=O)N2CCN(c3cc(C(F)(F)F)ccn3)CC2)cc1`, the Potency was inconclusive: 4.11 µM [activator, partial curve, poor fit]. With `O=S(=O)(Nc1ccccc1F)c1ccc(Cl)nc1` the “re-replication activation” value was inactive: 2.67%. In the case of `CCOC(=O)c1c(C)oc2c1c(C=NC1CCS(=O)(=O)C1)c(O)c1ccccc12` (configuration not stated), the Potency was inconclusive: 0.0231 µM [activator, full curve, poor fit]. In the case of `COc1ccc(OC)c(/C=N/Nc2nc(C)cc(=O)[nH]2)c1`, the “re-replication activation” value was inactive: -1.3%. In the case of `O=S(=O)(Nc1ccccc1)c1ccc2c(c1)CCO2`, the Potency was inconclusive: 25.9 µM [activator, single point]. For `C=CCSc1nccc(-c2nn(-c3ccc(C)cc3)ccc2=O)n1`, the Potency was inconclusive: 16.4 µM [activator, partial curve, poor fit]. With `Fc1ccccc1CNCCC(Cc1ccccc1)c1ccc2c(c1)OCO2` (configuration not stated) the Potency was inconclusive: 16.4 µM [activator, single point]. With `O=S(=O)(c1ccccc1)c1nnn2c1nc(NC1CCN(Cc3ccccc3)CC1)c1cc(Cl)ccc12` the Potency was inconclusive: 18.4 µM [activator, single point]. For `O=C(Cc1ccccc1F)Nc1ccc(S(=O)(=O)N2CCCC2)cc1`, the Potency was inconclusive: 16.4 µM [activator, single point]. With `CN1CCN(c2ccc(NC(=O)COc3ccc4ccccc4c3)cc2)CC1` the Potency was inconclusive: 18.4 µM [activator, single point]. In the case of `C[C@H](CO)N1C[C@H](C)[C@@H](CN(C)S(C)(=O)=O)Oc2ccc(NC(=O)Cn3cnnn3)cc2C1=O`, the Potency was inconclusive: 8.2 µM [activator, partial curve, poor fit]. For `Cc1ccc(CNC(=O)CN2c3cccc4cccc(c34)S2(=O)=O)cc1`, the Potency was inconclusive: 32.6 µM [activator, partial curve, poor fit]. For `COc1cc(/C=C(\C#N)c2nc3ccccc3[nH]2)cc(Br)c1OCc1ccccc1`, the Potency was active: 18.4 µM. With `Cc1cc(Br)c(S(=O)(=O)n2nnc3ccccc32)cc1C` the Potency was inconclusive: 2.31 µM [activator, full curve, poor fit]. In the case of `N#CCSc1nc2ccccc2c2nc3ccccc3n12`, the “re-replication activation” value was inactive: -1.38%. For `Cc1ccc(NC(=O)C2COc3ccccc3O2)cc1S(=O)(=O)N1CCCCC1` (configuration not stated), the “re-replication activation” value was inactive: 0.219%. With `O=C(OCCN1C(=O)c2cccc3c(N4CCOCC4)ccc(c23)C1=O)c1cccc(Cl)c1` the Potency was inconclusive: 18.4 µM [activator, single point]. For `O=c1[nH]c(SCc2nc3ccccc3n2Cc2ccccc2)nc2ccccc12`, the “re-replication activation” value was inactive: -3.73%. In the case of `CCCC(=O)c1ccc(N2CCN(C(=O)c3ccccc3)CC2)c(F)c1`, the “re-replication activation” value was inactive: 6.3%. For `CC(OC(=O)c1cc(Br)ccc1O)C(=O)Nc1ccc(S(=O)(=O)N2CCCC2)cc1` (configuration not stated), the Potency was inconclusive: 29.1 µM [activator, partial curve, poor fit]. With `C=CCc1cc(Cl)ccc1OCCN(C)C` the Potency was inconclusive: 35.5 µM [activator, partial curve, poor fit]. With `CC(=O)C1=C(S(=O)(=O)c2ccc(C)cc2)CS(=O)(=O)C1` the Potency was active: 14.6 µM. For `Cc1nn(CC(=O)Nc2cc(S(=O)(=O)N(C)C)ccc2Cl)c(C)c1[N+](=O)[O-]`, the “re-replication activation” value was inactive: -3.74%. In the case of `CCCCOC(=O)Nc1nnc(CC(=O)NCc2ccccc2)s1`, the Potency was inconclusive: 13 µM [activator, partial curve, poor fit]. With `Cc1c(NS(=O)(=O)c2cc(C(=O)NCc3ccco3)cc(Cl)c2Cl)c(=O)n(-c2ccccc2)n1C` the Potency was inconclusive: 29.1 µM [activator, partial curve, poor fit]. With `Cc1cccc2nc(-c3ccccc3)nc(N[C@@H](CO)c3ccccc3)c12` the “re-replication activation” value was inactive: 28.8%. In the case of `COc1cc(OC)cc(-c2nnc(NC(=O)CCS(=O)(=O)c3ccc(F)cc3)o2)c1`, the Potency was inconclusive: 35.5 µM [activator, single point]. For `O=C(Nc1nnc(-c2ccncc2)o1)c1ccc(Br)s1`, the Potency was inconclusive: 23.1 µM [activator, single point]. For `CCCCOc1ccc(NC(=O)[C@@H]2CCCN2C(=O)C2CCN(S(=O)(=O)c3ccc(C)cc3)CC2)cc1`, the Potency was inconclusive: 0.461 µM [activator, full curve, poor fit]. In the case of `Cc1ccc(NC(=S)N2CCN(C3CCCCC3)CC2)cc1`, the “re-replication activation” value was inactive: -2.04%. With `Cn1c(=O)c2c(nc(CN3CCN(Cc4ccccc4)CC3)n2Cc2cccc(Cl)c2)n(C)c1=O` the “re-replication activation” value was inactive: 2.41%. For `Cc1ccc(OCCCCNC2CCCCC2)c(C)c1`, the Potency was inconclusive: 20.6 µM [activator, single point]. In the case of `CCCn1c(SCC(=O)N2CCN(C(C)=O)CC2)nc2sc3c(c2c1=O)CCC3`, the Potency was inconclusive: 18.4 µM [activator, single point]. With `COc1cc(C(=O)CCN2CCC(c3ccccc3)C2)cc(OC)c1OC` (configuration not stated) the Potency was inconclusive: 29.1 µM [activator, single point].
